From patent publication US12377119B2, “Natural killer cells” (IMPERIAL COLLEGE INNOVATIONS LIMITED, priority 2018, dated 2025)
Entries after “also recorded” stand apart in the source; their conditions may differ. Some results were stated once for a whole list of compounds, not compound by compound.

Molecular target: T1, REV-ERBα (Homo sapiens, UniProt P20393)
T1 construct: expressed in transfected cells; host or cells: HEK293T
T1 sequence (P20393 1-614): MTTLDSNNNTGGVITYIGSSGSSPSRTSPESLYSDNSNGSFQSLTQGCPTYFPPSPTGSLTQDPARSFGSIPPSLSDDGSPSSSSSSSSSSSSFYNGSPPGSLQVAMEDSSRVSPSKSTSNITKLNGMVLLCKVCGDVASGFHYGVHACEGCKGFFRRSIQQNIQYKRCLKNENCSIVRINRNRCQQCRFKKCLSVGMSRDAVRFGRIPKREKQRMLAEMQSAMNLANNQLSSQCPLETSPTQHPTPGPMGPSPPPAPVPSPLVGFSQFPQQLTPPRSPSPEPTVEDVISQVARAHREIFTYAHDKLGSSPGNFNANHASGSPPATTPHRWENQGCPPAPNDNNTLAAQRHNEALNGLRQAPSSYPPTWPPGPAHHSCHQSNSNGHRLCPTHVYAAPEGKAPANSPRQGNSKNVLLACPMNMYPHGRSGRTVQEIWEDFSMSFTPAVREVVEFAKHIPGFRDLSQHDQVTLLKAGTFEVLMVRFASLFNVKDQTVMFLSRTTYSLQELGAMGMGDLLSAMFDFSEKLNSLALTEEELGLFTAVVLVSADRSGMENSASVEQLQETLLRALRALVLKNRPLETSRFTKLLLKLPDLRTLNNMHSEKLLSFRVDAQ
Experiment: Dual-luciferase Bmal-luc reporter assay in HEK293T cells transfected with REV-ERBα
Type: cell-based
Settings: 10 μM; FIG. 5; three independent experiments in triplicate
Method: HEK293T cells were defrosted and maintained in DMEM supplemented with 10% FCS and 1% P/S at 37° C. and 5% CO2. Cells were plated in a 24-well plate (7·10^4 cells/well in 0.5 mL of DMEM+10% FCS). 24 h after seeding, cells were transfected with 100 ng of Bmal-luc, 10 ng of pRL-CMV Renilla as an internal control and 10 ng of REV-ERBα or the empty vector pcDNA3 as a control. All conditions were equalled to a total of 400 ng of DNA by using BSM. In order to prepare transfection samples, calculated amounts of DNA needed for each condition were prepared in Opti-MEM and Fugene was added in a 5:2 Fugene:DNA ratio. Mixtures were vortexed to assure homogeneity and left to incubate for 15 min at rt. Afterwards, each DNA mix was transferred into the 24-well plate containing the pre-seeded cells, with each condition repeated by triplicate. 5 h after transfection, cells were treated with compounds 2-12, AG1-AG5 or DMSO as vehicle. Solution of the compounds in DMEM were prepared at a double concentration than the final desired one, and 0.5 mL of these solutions were added to each well. 24 h after transfection, cells were lysed and luciferase activity was measured using Dual-Luciferase Reporter Assay System E2920 (Promega). To perform the experiment, cells were lysed by adding 50 μL of passive lysis buffer (PLB) (1:5 dilution) to each well and gently stirring for 30 min. Each cell lysate was transferred to a 96-well plate. 50 μL of Dual-Glo reagent were dispensed into each well, tapped gently to mix and incubated for 10 min. Luminescence of firefly luciferase was measured using a Tecan VICTOR Light Luminescent counter equipment. Then, 50 μL of Stop&Glo reagent were dispensed to quench firefly activity and activate Renilla luciferase, incubated for 10 min and measured. Firefly activity was normalized to Renilla luciferase activity. Results were analysed using Welch's corrected parametric t-test.
(§1) The method of Example 2 was repeated using Compounds 70 to 72 (generated as described in Example 1). Compounds 4, 7 and 11 (tested in Example 2) were used as a positive control for REV-ERB inhibitory activity, agonist compound AG2 (also tested in Example 2) and DMSO were also tested as comparators.
The method of Example 2 was repeated using Compounds 64 to 66, 69 and 70 to 73 (generated as described in Example 1). Once again, Compounds 4, 7 and 11 (tested in Example 2) were used as a positive control for REV-ERB inhibitory activity, agonist compound AG2 (also tested in Example 2) and DMSO were also tested as comparators.
as §1, with “16” for “70”, “19, 27, 28 and 44” for “72”, “1). Once again,” for “1).”

Compound	Effect on REV-ERBα activity (Bmal-luc luciferase expression)
CCOC(=O)CN(Cc1ccccc1)Cc1ccco1 (racemic) [Compound 73]	statistically significant; also recorded: significant antagonistic activity
CCOC(=O)C1Cc2ccccc2CN1C(=O)c1ocnc1C (racemic) [Compound 11, Ethyl 2-(4-methyloxazole-5-carbonyl)-1,2,3,4-tetrahydrolsoquinoline-3-carboxylate]	significant antagonistic activity
CCOC(=O)C1Cc2ccccc2CN1C(=O)c1ccco1 (racemic) [Compound 7, Ethyl 2-(furan-2-carbonyl)-1,2,3,4-tetrahydrolsoquinoline-3-carboxylate]	significant antagonistic activity
CCOC(=O)C1Cc2ccccc2CN1C(=O)OCC (racemic) [Compound 4, Diethyl 3,4-dihydroisoquinoline-2,3(1H)-dicarboxylate]	significant antagonistic activity
CCOC(=O)CN(Cc1ccccc1)C(C)=O (racemic) [Compound 71]	statistically significant; also recorded: significant antagonistic activity
CCOC(=O)CN(Cc1ccccc1)C(=O)c1ccco1 (racemic) [Compound 72]	statistically significant; also recorded: significant antagonistic activity
